Laboratory results as given in the supplement of paper PMC4635364.
Structures can show the parent of a compound that is named as a salt. This is one part of the list. Single values are uncertain here, since repeats match poorly.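 Human fetal ventral-midbrain neural progenitor line ReNCell VM, differentiated without mitogens. Images stained for doublecortin (early neurons) or tyrosine hydroxylase (dopaminergic neurons) were scored by blinded raters against untreated wells (0 = no change). Repeats and both raters were averaged, and compounds averaging 2 or higher were picked as hits for retesting.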

Each compound was assayed on ReNCell VM (assay: dopaminergic neuron differentiation score (TH+ cell fraction vs untreated, manual image score) (score (0 to 3)); higher = more TH+ dopaminergic neuron differentiation). Conditions: library: Tocriscreen; 2 uM; 4 weeks; BDNF 10 ng/ml + GDNF 10 ng/ml.

For `O=C(O)c1ccccc1Nc1cccc(OCc2ccc3ccccc3n2)c1` [SR 2640 hydrochloride], which “dopaminergic neuron differentiation score” value is on record?
The value was inactive: 0.

Which “dopaminergic neuron differentiation score” value does the source give for `COc1ccc(CC(=O)NC(/N=C(\NC#N)Nc2cccc3ncccc23)C(C)(C)C)cc1OC` (centres undefined) here?
Its value is inactive: 1.

How did the “dopaminergic neuron differentiation score” value turn out when `Cc1ccc(Sc2cncc3sc(C(N)=O)cc23)cc1` was run?
The value was inactive: 0.

Which “dopaminergic neuron differentiation score” value does the source give for `Cn1cccc1/C=C1\C(=O)NC(=O)c2ccccc21` here?
Its value is inactive: 0.
